Measured values from article doi:10.1101/2025.06.18.660436.
Read-outs that look alike come from different tables or passages of the source. These are yes or no findings as the source states them, for the method shown. Binding seen in cells or lysates may run through a third protein. Some binding calls cover weakened binding; strength is not graded here. For some of these results: Tags and fused reporters may be left off the sequences shown.

Amino acid sequences for entries named in this document (tags omitted).
UniProt Q16665, whole entry: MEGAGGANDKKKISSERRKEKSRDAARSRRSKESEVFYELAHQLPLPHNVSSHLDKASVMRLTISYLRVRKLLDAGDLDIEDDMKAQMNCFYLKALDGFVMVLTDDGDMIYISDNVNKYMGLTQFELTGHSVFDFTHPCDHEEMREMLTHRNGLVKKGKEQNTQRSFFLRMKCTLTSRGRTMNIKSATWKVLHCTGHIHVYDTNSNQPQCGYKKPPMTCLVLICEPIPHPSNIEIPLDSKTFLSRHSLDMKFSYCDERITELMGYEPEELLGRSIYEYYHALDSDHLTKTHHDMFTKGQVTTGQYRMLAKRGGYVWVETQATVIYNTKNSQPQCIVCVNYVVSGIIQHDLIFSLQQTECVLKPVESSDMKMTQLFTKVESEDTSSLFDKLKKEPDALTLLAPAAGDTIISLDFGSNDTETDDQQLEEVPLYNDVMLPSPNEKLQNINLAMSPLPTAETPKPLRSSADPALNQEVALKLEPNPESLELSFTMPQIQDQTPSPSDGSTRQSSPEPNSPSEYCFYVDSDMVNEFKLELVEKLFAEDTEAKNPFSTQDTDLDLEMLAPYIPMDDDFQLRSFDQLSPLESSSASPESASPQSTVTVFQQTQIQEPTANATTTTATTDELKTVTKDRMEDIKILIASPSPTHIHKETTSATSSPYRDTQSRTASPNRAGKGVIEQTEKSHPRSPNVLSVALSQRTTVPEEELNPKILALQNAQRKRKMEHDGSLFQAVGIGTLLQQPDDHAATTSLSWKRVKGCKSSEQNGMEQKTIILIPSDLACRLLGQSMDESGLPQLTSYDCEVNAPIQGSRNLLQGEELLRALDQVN
UniProt P62191, whole entry: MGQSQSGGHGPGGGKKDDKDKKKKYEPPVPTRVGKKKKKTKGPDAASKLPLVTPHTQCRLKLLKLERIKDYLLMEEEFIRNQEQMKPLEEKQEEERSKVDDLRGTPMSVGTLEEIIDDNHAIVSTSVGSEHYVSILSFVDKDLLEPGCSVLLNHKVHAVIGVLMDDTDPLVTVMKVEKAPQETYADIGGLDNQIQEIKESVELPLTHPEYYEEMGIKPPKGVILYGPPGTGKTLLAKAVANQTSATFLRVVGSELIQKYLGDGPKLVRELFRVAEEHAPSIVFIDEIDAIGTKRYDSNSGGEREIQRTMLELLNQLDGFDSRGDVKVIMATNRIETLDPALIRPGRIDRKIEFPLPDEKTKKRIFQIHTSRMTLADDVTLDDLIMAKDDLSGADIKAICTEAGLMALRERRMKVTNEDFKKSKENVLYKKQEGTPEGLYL
UniProt Q13200, whole entry: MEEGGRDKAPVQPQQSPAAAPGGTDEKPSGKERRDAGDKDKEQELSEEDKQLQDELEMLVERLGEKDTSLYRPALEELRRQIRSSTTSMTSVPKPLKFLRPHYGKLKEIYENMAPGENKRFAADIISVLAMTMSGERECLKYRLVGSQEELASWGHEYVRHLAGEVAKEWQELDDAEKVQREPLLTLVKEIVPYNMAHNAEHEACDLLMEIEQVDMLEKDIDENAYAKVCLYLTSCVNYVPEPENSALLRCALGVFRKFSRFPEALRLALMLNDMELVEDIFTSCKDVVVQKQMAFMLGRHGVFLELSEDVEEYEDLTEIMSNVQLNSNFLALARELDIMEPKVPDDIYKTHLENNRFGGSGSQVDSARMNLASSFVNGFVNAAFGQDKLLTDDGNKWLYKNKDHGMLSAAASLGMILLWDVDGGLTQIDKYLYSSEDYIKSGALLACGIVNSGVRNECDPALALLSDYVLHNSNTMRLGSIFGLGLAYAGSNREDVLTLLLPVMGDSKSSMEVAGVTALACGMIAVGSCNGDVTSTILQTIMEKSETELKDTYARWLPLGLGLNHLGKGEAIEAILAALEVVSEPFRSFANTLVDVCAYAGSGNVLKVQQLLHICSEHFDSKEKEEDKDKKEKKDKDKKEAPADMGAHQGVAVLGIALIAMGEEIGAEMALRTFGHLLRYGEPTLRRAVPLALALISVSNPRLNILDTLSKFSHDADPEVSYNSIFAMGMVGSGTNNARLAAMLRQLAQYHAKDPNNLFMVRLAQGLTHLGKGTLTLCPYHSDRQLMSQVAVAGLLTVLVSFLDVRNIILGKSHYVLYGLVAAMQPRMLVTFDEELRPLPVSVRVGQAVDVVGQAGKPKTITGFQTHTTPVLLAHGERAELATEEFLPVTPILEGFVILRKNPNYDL

B1: Flag-UBFD1 (protein, UniProt O14562 1-309)
chain: MAAAGAPDGMEEPGMDTEAETVATEAPARPVNCLEAEAAAGAAAEDSGAARGSLQPAPAQPPGDPAAQASVSNGEDAGGGAGRELVDLKIIWNKTKHDVKFPLDSTGSELKQKIHSITGLPPAMQKVMYKGLVPEDKTLREIKVTSGAKIMVVGSTINDVLAVNTPKDAAQQDAKAEENKKEPLCRQKQHRKVLDKGKPEDVMPSVKGAQERLPTVPLSGMYNKSGGKVRLTFKLEQDQLWIGTKERTEKLPMGSIKNVVSEPIEGHEDYHMMAFQLGPTEASYYWVYWVPTQYVDAIKDTVLGKWQYF
B2: UBFD1 (endogenous) (protein, UniProt O14562 1-309)
chain: B1 chain

Tests used:
[1] = target: HA-HIF1A (UniProt Q16665); test: co-IP
[2] = target: HA-HIF1A (UniProt Q16665); test: co-IP; remark: listed apart in the source

Molecule	binding [1]	binding [2]
PSMC1 (from UniProt P62191 1-440)	binds	
PSMD2 (from UniProt Q13200 1-908)	binds	
B1		binds
B2		binds
